Source: PubChem BioAssay AID652243 (Drosophila RNAi Screening Center, 2013)
Assay: 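Fly regulators of androgen-dependent reporter output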 (primary screen). Cells: Drosophila S2R+ cells. Reagent: long dsRNA against Drosophila genes. Duration: 72 h (48 h, then 24 h hormone). Conditions: synthetic androgen R1881 at 10 nM for 24 h. Detection: 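Firefly light from an androgen-responsive reporter and Renilla control light per well, raw and unnormalised, for each of two replicates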. Reading the numbers: firefly reporter light: higher = more light from androgen-responsive reporter; Renilla control light: higher = more constitutive control signal (cell number, transfection). Active means: 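Across duplicate plates, a knock-down whose log firefly/Renilla ratio shifted a set fold down or up from the GFP/LacZ control mean was a hit; the downward cut appears as both 1.5 and 3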. Calls: active = hit: reporter lowered or raised; inactive = no hit.
The screen tested about 24,000 reagents; shown is a random part of those with a known target gene and a result. Over the whole deposit, 246 (1%) were called active. 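Plates not normalised; calls are printed but the firefly/Renilla ratio behind them is not deposited; fold cut for lowering reported inconsistently.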 Raw values are not corrected between plates. A plus sign joins genes that one reagent is predicted to hit. The record does not give: the amount of reagent.

"firefly reporter light, replicate 1","firefly reporter light, replicate 2","Renilla control light, replicate 1","Renilla control light, replicate 2",Outcome,target,DRSC id
4.58e5,4.75e5,3.11e6,3.22e6,inactive,CG9518,DRSC20194
4.55e5,3.38e5,8.05e5,7.16e5,inactive,CG9518,DRSC27096
2.72e5,92288,2.66e6,9.75e5,inactive,CG10654,DRSC09767
1.07e5,1.03e5,1.34e6,1.34e6,inactive,CG15605,DRSC06558
7.09e5,5.21e5,1.67e6,1.39e6,inactive,Oseg4,DRSC08548
1.55e5,1.45e5,1.89e6,2.12e6,inactive,Srp19,DRSC11288
2.64e5,2.45e5,6.62e5,3.91e5,inactive,Srp19,DRSC24706
84895,71792,1.24e6,5.91e5,inactive,CG31792,DRSC02604
1.77e5,1.74e5,1.79e6,2.39e6,inactive,CG10839,DRSC01965
6.19e5,1.09e6,1.07e6,1.22e6,inactive,Galt,DRSC03161
12473,16900,2.36e5,1.87e5,inactive,Hr78,DRSC11866
5.24e5,3.60e5,1.93e6,1.40e6,inactive,Hr78,DRSC27893
1.75e5,2.08e5,2.79e6,4.02e6,inactive,CG16734,DRSC15143
1.21e6,7.22e5,2.60e6,1.56e6,inactive,CG5721,DRSC06945
2.30e5,2.54e5,2.43e6,3.04e6,inactive,Alp4,DRSC14116
,,,,inactive,Alp4,DRSC36712
86588,85514,2.51e6,2.41e6,inactive,prage,DRSC17957
1.69e5,1.73e5,2.52e6,2.33e6,inactive,prage,DRSC18490
3.75e5,5.08e5,4.18e6,3.93e6,inactive,prage,DRSC18497
31228,17981,2.05e5,2.33e5,inactive,CG9801,DRSC16568
8.19e5,8.48e5,1.40e6,1.55e6,inactive,ppk10,DRSC38920
4.49e5,5.41e5,2.12e6,1.42e6,inactive,CG6712,DRSC02981
6.01e5,6.05e5,2.24e6,2.03e6,inactive,CG6712,DRSC21690
82440,74650,1.18e6,1.29e6,inactive,CG13931,DRSC08400
9.05e5,9.02e5,9.73e5,9.76e5,inactive,CG13931,DRSC25534
1.12e6,1.18e6,1.98e6,2.03e6,inactive,Ttc7,DRSC04836
8.28e5,1.11e6,3.77e6,1.91e6,inactive,CG9886,DRSC00732
3.52e5,2.83e5,9.31e5,8.89e5,inactive,CG9886,DRSC26380
82148,78750,1.29e6,1.29e6,inactive,Smurf,DRSC07641
6.72e5,4.13e5,1.51e6,1.61e6,inactive,Smurf,DRSC29832
2.49e5,3.60e5,2.53e6,2.49e6,inactive,Rab19,DRSC11260
4.34e5,5.25e5,1.14e6,1.14e6,inactive,Rab19,DRSC29485
1.66e5,2.18e5,7.51e5,3.91e5,inactive,Obp22a,DRSC00088
1.99e5,1.94e5,1.86e6,1.81e6,inactive,CG5087,DRSC10479
7.09e5,5.10e5,1.43e6,1.40e6,inactive,CG30100 + CG42372,DRSC30025
1.48e5,2.01e5,2.01e6,2.02e6,inactive,mRpL45,DRSC16146

Next part, starting with the last 3 of the part before.
"firefly reporter light, replicate 1","firefly reporter light, replicate 2","Renilla control light, replicate 1","Renilla control light, replicate 2",Outcome,target,DRSC id
1.99e5,1.94e5,1.86e6,1.81e6,inactive,CG5087,DRSC10479
7.09e5,5.10e5,1.43e6,1.40e6,inactive,CG30100 + CG42372,DRSC30025
1.48e5,2.01e5,2.01e6,2.02e6,inactive,mRpL45,DRSC16146
4.78e5,5.30e5,5.78e5,3.87e5,inactive,CG40198,DRSC21068
3.76e5,3.96e5,3.04e6,3.72e6,inactive,CG32652 (retired record),DRSC18942
5.60e5,8.13e5,7.44e5,1.05e6,inactive,CG32652 (retired record),DRSC22662
2.78e5,3.20e5,7.93e5,8.22e5,inactive,CG32652 (retired record),DRSC27195
7.12e5,8.34e5,1.21e6,1.58e6,inactive,CG8460,DRSC03090
1.22e6,6.49e5,2.11e6,1.91e6,inactive,dap,DRSC07601
,,,,inactive,dap,DRSC36662
,,,,inactive,dap,DRSC36663
90262,1.23e5,6.23e5,6.37e5,inactive,CG12204,DRSC19442
3.34e5,3.39e5,7.83e5,7.50e5,inactive,CG12204,DRSC26143
1.76e5,1.45e5,1.10e6,7.69e5,inactive,IM33,DRSC00476
7.51e5,9.24e5,6.26e5,9.68e5,inactive,IM33,DRSC24513
77244,75125,1.27e6,1.27e6,inactive,ND-51L1,DRSC06072
4.27e5,4.02e5,8.46e5,7.31e5,inactive,twi,DRSC23185
3.78e5,3.83e5,7.74e5,8.52e5,inactive,twi,DRSC26056
1.86e5,2.74e5,1.50e6,2.11e6,inactive,Trf,DRSC03462
1.27e5,1.13e5,2.55e6,2.55e6,inactive,CG14480,DRSC06452
1.66e5,1.35e5,2.33e5,3.26e5,inactive,amon,DRSC13784
2.52e5,2.47e5,3.03e6,3.36e6,inactive,amon,DRSC16900
1.71e5,2.55e5,2.24e5,2.47e5,inactive,CG32198,DRSC09553
2.71e5,2.21e5,4.98e5,8.83e5,inactive,CG32198,DRSC27630
2.62e5,1.59e5,3.25e6,2.45e6,inactive,CG42521,DRSC10154
